Here are results for three sequences from patent publication US6120992.

Amino acid sequences for entries named in this document (tags omitted). A change or cut given only in a name is not applied to a line headed by its entry.
UniProt P23909: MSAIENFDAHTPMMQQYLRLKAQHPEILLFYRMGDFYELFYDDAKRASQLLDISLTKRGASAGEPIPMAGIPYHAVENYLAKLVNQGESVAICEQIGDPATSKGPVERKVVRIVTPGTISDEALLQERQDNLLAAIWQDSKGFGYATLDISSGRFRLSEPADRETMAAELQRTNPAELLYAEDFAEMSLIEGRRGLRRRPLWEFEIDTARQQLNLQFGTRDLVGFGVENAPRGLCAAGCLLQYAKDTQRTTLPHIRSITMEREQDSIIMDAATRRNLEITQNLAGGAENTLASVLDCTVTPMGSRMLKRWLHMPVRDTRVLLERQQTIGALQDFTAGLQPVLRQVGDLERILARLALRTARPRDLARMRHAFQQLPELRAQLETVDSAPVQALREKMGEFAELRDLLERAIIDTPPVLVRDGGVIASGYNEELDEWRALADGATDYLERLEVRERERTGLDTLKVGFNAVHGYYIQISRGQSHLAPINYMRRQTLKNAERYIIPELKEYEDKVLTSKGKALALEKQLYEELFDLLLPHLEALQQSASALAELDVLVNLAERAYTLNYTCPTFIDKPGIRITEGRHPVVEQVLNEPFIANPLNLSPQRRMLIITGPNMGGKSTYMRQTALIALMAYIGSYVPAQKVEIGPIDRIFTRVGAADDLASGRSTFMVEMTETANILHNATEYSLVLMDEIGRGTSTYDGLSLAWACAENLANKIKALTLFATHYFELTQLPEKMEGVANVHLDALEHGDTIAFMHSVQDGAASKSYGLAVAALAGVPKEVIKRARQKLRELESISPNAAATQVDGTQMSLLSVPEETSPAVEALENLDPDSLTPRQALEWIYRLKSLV

This data set has as its target MutS (Escherichia coli) (UniProt P23909). Kind of data set: binding assay. The settings on record: immobilized MutS, label: 5' biotin on first strand.
Setting [1] is: [strand 1: 1 (5'-biotin)], detected less well than 1-2 unpaired bases, letters built from the parent sequence and the stated change.

For at least one entry, the source does not settle the construct or the ends of the probe. No signal at the amounts used counts as a negative. Weaker means in comparison with the reference protein, sequence or condition of that experiment.

Take “GCACCTGACTCCTGGCGAGAAGTCTGCCGT / ACGGCAGACTTCTCCCCAGGAGTCAGGTGC [C//C mismatch 30mer]”: for the setting “only mismatch not detected”, the binding result is “no binding”.
Take “GCACCTGACTCCTGGGGAGAAGTCTGCCGT / ACGGCAGACTTCTCCGACCCAGGAGTCAGGTGC [Unpaired CAG]”: under setting [1], the binding result is listed as “binds more weakly”.
Same read-out and setting: next, “GCACCTGACTCCTGGGGAGAAGTCTGCCGT / ACGGCAGACTTCTCCGGACCCAGGAGTCAGGTGC [Unpaired CAGG]”: “binds more weakly”.
